The other results are listed elsewhere or left out. The calls rarely recur for the same compound in another form.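 In K562 cells expressing nanoluciferase-fused kinases, luminescence was recorded at 4 h intervals between 2 and 18 h, normalized as percent of control with DMSO at 100% and a positive control at 0%. A significant (2 sigma) signal drop marks a time point as decreased. The authors' rule for a hit is not shown and takes in more than the number of time points.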
Key:
Test in all cases: number of time points (of 5) at which kinase-Nluc abundance scored as decreased, DMSO-normalised (count); higher = more persistent destabilization
Details in all cases: K562; 2-18 h
[1] = target: EGFR_L861Q (UniProt P00533)
[2] = target: EGFR_T790M (UniProt P00533)
[3] = target: EPHA2 (UniProt P29317)
[4] = target: ERBB3 (UniProt P21860)
[5] = target: ERBB4_R711C (clone: ERBB4_mut) (UniProt Q15303)
[6] = target: ERN1 (UniProt O75460)
[7] = target: FGFR1 (UniProt P11362)
[8] = target: FGFR2 (UniProt P21802)
[9] = target: FGFR3 (UniProt P22607)
[10] = target: FGR (UniProt P09769)
[11] = target: FLT3 (UniProt P36888)
[12] = target: FYN (UniProt P06241)
[13] = target: GSK3A (UniProt P49840)
[14] = target: HER2 (UniProt P04626)
[15] = target: INSRR (UniProt P14616)
[16] = target: IRAK3 (UniProt Q9Y616)
[17] = target: JAK1 (UniProt P23458)
[18] = target: LCK (UniProt P06239)
[19] = target: LIMK1 (UniProt P53667)
[20] = target: LIMK2 (UniProt P53671)

Amino acid sequences for entries named in this document (tags omitted). A change or cut given only in a name is not applied to a line headed by its entry.
UniProt P29317, whole entry: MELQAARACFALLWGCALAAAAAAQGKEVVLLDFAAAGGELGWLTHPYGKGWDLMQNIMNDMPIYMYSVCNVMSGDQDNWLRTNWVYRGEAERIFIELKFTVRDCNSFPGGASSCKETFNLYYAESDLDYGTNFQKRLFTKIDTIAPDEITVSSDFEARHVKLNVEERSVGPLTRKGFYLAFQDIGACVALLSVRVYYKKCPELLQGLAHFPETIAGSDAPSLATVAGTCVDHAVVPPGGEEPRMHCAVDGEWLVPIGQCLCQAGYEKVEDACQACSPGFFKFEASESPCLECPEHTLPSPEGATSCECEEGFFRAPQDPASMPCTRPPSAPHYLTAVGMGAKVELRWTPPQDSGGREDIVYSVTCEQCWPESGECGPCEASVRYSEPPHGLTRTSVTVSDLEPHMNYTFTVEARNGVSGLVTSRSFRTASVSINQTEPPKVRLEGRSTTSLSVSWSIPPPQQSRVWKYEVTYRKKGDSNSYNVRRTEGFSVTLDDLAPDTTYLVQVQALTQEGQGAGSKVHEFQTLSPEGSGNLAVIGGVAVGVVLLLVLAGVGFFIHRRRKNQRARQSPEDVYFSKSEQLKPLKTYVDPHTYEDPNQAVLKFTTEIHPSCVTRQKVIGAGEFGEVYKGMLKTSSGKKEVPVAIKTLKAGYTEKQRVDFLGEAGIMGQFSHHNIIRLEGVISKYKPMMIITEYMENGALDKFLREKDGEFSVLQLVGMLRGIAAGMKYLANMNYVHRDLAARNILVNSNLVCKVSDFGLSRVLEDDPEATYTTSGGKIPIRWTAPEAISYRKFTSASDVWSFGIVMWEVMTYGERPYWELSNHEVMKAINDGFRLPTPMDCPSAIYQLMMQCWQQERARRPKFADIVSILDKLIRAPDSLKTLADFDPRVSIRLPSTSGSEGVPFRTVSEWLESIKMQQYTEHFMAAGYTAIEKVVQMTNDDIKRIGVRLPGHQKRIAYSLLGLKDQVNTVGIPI
UniProt P21860, whole entry: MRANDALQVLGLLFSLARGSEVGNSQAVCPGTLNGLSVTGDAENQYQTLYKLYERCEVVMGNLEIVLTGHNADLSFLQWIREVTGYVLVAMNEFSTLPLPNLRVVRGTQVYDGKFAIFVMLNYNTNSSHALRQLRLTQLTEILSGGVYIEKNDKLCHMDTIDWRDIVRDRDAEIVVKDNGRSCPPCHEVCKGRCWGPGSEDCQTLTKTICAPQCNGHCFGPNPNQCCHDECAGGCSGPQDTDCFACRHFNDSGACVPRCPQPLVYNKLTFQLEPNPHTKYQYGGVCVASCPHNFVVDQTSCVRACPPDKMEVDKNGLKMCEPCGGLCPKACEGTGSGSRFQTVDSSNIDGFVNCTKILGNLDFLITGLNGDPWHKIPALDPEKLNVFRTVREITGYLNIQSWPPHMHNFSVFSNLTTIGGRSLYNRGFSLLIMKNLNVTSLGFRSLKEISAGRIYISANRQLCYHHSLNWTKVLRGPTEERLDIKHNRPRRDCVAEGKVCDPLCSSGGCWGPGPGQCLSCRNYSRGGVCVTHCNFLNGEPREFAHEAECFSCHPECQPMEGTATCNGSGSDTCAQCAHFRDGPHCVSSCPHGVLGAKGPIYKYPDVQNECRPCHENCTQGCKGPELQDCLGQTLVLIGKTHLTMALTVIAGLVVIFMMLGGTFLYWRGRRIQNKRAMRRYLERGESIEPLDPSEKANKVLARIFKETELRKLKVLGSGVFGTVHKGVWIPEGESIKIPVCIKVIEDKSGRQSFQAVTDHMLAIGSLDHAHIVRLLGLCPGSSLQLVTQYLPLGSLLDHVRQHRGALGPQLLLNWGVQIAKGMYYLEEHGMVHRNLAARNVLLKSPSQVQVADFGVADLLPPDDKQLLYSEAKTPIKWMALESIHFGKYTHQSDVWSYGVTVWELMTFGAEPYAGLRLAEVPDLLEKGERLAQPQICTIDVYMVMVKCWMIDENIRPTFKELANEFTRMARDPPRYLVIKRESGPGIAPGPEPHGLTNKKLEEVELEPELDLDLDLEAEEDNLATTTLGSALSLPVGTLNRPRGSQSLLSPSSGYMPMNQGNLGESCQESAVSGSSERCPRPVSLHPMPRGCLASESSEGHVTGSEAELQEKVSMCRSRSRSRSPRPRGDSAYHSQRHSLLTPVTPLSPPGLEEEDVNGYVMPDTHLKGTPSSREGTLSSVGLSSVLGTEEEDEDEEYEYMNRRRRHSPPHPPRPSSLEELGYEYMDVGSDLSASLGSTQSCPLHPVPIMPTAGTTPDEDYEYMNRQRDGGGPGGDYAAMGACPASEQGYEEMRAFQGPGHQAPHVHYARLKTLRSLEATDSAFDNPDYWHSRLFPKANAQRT
UniProt P21802, whole entry, looked up: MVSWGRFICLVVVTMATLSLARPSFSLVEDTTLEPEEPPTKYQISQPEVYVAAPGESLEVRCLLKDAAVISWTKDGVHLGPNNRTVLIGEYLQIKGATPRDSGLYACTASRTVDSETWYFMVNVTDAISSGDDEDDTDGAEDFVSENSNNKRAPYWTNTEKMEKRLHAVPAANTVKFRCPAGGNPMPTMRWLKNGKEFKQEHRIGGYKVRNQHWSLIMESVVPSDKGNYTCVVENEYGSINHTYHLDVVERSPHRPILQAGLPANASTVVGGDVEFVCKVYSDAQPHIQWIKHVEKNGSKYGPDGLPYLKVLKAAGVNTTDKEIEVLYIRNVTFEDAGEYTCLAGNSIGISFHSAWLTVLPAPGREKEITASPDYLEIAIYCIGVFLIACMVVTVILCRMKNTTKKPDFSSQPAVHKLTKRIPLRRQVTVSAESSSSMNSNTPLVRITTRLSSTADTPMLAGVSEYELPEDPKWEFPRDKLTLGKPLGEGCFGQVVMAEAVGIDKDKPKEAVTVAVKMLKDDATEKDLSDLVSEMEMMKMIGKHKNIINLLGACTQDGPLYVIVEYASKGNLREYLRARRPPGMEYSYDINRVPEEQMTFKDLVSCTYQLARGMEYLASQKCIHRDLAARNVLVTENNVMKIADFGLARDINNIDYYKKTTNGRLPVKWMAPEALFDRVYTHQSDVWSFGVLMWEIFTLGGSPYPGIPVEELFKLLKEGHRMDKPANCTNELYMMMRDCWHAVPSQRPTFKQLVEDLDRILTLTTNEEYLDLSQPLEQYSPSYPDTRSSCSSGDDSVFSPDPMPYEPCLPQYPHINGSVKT
UniProt P22607, whole entry, looked up: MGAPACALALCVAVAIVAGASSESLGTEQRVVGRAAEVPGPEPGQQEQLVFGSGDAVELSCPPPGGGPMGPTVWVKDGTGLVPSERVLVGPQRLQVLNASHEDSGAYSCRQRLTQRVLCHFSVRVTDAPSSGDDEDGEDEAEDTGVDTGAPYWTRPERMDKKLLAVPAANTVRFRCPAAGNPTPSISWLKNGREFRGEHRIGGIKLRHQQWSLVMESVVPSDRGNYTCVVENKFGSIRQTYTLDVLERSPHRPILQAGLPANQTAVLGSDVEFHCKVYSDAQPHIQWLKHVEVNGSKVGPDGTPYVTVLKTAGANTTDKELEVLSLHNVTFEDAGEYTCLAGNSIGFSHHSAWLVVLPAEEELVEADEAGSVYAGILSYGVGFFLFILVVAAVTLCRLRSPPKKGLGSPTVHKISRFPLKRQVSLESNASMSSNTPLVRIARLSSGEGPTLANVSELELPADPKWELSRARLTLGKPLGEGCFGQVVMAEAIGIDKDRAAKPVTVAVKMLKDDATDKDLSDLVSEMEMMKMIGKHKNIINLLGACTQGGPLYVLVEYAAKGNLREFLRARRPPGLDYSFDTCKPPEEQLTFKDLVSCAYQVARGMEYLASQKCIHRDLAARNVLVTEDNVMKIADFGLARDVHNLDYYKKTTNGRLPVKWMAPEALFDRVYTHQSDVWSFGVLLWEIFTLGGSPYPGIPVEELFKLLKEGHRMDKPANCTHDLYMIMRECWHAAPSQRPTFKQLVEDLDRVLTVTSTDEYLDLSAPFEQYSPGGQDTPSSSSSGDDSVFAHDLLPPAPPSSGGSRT
UniProt P36888, whole entry: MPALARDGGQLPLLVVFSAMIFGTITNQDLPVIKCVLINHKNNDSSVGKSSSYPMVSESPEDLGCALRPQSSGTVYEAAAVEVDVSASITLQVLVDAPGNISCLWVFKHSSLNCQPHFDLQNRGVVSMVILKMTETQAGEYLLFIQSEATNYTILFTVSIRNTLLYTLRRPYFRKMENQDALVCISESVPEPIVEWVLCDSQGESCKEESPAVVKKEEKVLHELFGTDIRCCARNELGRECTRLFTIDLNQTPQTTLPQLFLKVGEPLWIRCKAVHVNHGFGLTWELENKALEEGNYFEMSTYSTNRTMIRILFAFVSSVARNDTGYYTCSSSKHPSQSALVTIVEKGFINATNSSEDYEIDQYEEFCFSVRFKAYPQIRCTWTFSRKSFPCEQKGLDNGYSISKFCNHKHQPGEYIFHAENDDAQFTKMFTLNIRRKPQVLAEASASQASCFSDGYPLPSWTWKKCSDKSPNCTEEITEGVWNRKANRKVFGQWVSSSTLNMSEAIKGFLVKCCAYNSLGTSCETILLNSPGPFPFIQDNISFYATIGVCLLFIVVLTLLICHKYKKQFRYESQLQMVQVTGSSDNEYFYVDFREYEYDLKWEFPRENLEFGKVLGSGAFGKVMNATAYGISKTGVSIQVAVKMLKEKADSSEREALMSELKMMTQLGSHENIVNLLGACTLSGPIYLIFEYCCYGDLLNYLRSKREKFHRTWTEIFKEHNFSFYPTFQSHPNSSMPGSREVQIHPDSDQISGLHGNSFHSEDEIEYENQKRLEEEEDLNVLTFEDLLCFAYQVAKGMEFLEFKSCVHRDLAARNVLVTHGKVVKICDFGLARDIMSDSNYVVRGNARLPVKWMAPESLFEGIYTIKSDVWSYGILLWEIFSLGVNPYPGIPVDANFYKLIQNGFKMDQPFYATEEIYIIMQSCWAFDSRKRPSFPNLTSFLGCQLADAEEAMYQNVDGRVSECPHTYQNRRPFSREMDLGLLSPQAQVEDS
UniProt P06241, whole entry, looked up: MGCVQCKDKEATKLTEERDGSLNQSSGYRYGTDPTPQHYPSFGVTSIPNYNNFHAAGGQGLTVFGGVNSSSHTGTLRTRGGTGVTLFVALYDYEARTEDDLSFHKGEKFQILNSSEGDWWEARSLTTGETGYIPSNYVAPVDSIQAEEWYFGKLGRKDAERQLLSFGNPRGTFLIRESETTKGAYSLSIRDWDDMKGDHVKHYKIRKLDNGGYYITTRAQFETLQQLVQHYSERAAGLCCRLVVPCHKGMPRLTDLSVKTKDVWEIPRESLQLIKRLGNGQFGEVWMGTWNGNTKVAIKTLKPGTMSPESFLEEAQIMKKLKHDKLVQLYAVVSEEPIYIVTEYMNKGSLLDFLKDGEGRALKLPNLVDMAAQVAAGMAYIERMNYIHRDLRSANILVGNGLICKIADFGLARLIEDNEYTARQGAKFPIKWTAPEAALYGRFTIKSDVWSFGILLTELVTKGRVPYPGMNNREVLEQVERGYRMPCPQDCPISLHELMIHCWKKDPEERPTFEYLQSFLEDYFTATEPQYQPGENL
UniProt P53667: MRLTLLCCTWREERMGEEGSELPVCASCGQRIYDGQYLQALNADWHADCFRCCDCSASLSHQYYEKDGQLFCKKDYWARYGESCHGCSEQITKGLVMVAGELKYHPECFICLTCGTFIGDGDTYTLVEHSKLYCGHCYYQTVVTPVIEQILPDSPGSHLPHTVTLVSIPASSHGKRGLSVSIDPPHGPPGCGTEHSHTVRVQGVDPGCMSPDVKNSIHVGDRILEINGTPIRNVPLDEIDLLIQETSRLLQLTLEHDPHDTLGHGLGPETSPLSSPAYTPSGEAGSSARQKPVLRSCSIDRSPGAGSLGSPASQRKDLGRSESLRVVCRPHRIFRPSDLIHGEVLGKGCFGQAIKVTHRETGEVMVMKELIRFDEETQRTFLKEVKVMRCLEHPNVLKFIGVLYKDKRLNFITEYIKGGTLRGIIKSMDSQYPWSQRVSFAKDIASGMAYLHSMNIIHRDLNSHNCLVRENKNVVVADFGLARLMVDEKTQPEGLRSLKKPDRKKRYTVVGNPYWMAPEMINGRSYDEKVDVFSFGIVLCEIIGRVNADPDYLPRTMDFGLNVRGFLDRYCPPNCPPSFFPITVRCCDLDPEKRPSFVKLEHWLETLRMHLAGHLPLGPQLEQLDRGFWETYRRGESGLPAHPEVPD

Measured: number of time points

CC(C)(C)Cn1c(N)nc2ccc(-c3[nH]c(C(C)(C)C)nc3-c3ccc(F)cc3)nc21 [Ralimetinib dimesylate] (2.5 µM)
0: all assays above

CC(C)(C)C(=O)N1N=CC[C@H]1c1ccccc1 (10 µM)
0: all assays above

Nc1nc2cc(-c3ccc4ncc(C(=O)N5CCOCC5)n4c3)ccc2o1 [Serabelisib] (10 µM)
0: all assays above
